These are yes or no findings as the source states them, for the method shown. Binding seen in cells or lysates may run through a third protein. Some binding calls cover weakened binding; strength is not graded here.

By UniProt entry, the sequences of proteins in these tests, tags left out. Residues count along the entry.
UniProt Q15843, residues 1-76: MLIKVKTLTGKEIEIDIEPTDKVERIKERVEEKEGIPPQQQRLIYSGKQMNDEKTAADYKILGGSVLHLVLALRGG
UniProt P61586: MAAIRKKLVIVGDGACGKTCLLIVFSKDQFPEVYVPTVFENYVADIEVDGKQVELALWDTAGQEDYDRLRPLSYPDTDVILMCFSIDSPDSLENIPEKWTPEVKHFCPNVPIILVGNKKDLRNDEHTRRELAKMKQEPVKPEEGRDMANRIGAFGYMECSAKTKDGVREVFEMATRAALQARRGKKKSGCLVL

For one assay, the target named is Flag-tagged NEDD8 (UniProt Q15843). The assay can be described thus: co-IP; lysates of HEK293T cells expressing Flag-NEDD8; Co-IP buffer, antibody overnight at 4 °C, protein A magnetic beads; blot for RhoA.
Assay [1] addresses endogenous NEDD8 (HK-2 cells) (human (endogenous in HK-2)) (UniProt Q15843). The assay can be described thus: co-IP; endogenous proteins in HK-2 lysate; IP with anti-NEDD8 antibody, protein A magnetic beads; blot for RhoA.

Regarding “RhoA (in HEK293T lysate) (from UniProt P61586 1-193)”, the binding result in the assay with Flag-tagged NEDD8 was “binds”. On to “endogenous RhoA (HK-2 cells) (from UniProt P61586 1-193)”, for which the binding result in assay [1] is listed as “binds”.
